Source: PMC12431657, “Discovery and mechanistic insights of dibenzoylmethane as a broad spectrum inhibitor of coronavirus” (PLOS Pathogens, 2025)
Like-named read-outs stand apart in the source and are kept apart here. The campaign covered roughly 3,300 compounds. About 60 (2%) showed an effect of 50% or more. Some of the results follow.

System: HCoV-OC43
Parameters: species or system RD; HTS, protection from HCoV-OC43 induced cell death, luminescent cell viability (CellCounting-Lite 2.0), inhibition rate
Conditions: 24 h post infection, 1 h compound pre-incubation, 10 µM, inhibitor

SMILES | OC43 Inhibition rate (OC43 Inhibition rate, 24 h) [%] | OC43 Inhibition rate [%]
COc1cc2c(cc1OC)[C@@H]1Cc3ccc(OC)c(OC)c3CN1CC2 [Tetrahydropalmatine] | 3.1 | 
COc1cc2c(cc1OC)-c1c(C)c3ccc(OC)c(OC)c3c[n+]1CC2 [Dehydrocorydaline] | 3.1 | 
COc1ccc([C@@H]2CC(=O)c3c(O)cc(O[C@@H]4O[C@H](CO)[C@@H](O)[C@H](O)[C@H]4O[C@@H]4O[C@@H](C)[C@H](O)[C@@H](O)[C@H]4O)cc3O2)cc1 [Poncirin] |  | -0.1
CC(C)(O)[C@@H]1CC[C@](C)([C@H]2[C@@H](O)C[C@@]3(C)[C@@H]4C[C@H](O[C@@H]5O[C@H](CO)[C@@H](O)[C@H](O)[C@H]5O)[C@H]5C(C)(C)[C@@H](O[C@@H]6OC[C@@H](O)[C@H](O)[C@H]6O[C@@H]6O[C@H](CO)[C@@H](O)[C@H](O)[C@H]6O)CC[C@@]56C[C@@]46CC[C@]23C)O1 [Astragaloside VI] |  | 0
COc1ccc2c(c1OC)O[C@H]1c3ccc(O[C@@H]4O[C@H](CO)[C@@H](O)[C@H](O)[C@H]4O)cc3OC[C@@H]21 [Methylnissolin-3-O-glucoside] |  | 0.6
COc1cc(/C=C/c2ccc(O)cc2)cc(OC)c1 [Pterostilbene] |  | 12.2
COc1cc(CN)ccc1O [Vanillylamine] |  | -0.1
COc1cc2oc(=O)ccc2cc1CC=C(C)C [Suberosin] |  | 9.9
COc1ccc(/C=C\c2cc(OC)c(OC)c(OC)c2)cc1O [Combretastatin A4] |  | 0.3
O=CC[C@H](O)[C@H](O)CO [Thyminose] |  | -0.3
CCCCC(CC)COC(=O)C=Cc1ccc(OC)cc1 (stereo not drawn) [Octinoxate] |  | 5.8
CC(C)=CCC[C@](C)(O[C@@H]1O[C@H](CO)[C@@H](O)[C@H](O)[C@H]1O)[C@H]1CC[C@]2(C)[C@@H]1[C@H](O)C[C@@H]1[C@@]3(C)CC[C@H](O)C(C)(C)[C@@H]3[C@@H](O[C@@H]3O[C@H](CO)[C@@H](O)[C@H](O)[C@H]3O[C@@H]3OC[C@@H](O)[C@H](O)[C@H]3O)C[C@]12C [Notoginsenoside R1] |  | 0.5
O=c1c(O)c(-c2ccc(O)cc2)oc2c(O)c(O)cc(O)c12 [Herbacetin] |  | 0.7
OCc1ccccc1 [Benzyl alcohol] |  | -0.1
CCC1=C[C@@H]2CN(C1)Cc1c([nH]c3ccccc13)[C@@](C(=O)OC)(c1cc3c(cc1OC)N(C)[C@H]1[C@@](O)(C(=O)OC)[C@H](OC(C)=O)[C@]4(CC)C=CCN5CC[C@]31[C@@H]54)C2 [Vinorelbine (ditartrate)] |  | 18.3

Some of these compounds in order of count of non-hydrogen atoms, low to high.
SMILES | OC43 Inhibition rate (OC43 Inhibition rate, 24 h) [%] | OC43 Inhibition rate [%]
COc1cc2c(cc1OC)[C@@H]1Cc3ccc(OC)c(OC)c3CN1CC2 [Tetrahydropalmatine] | 3.1 | 
CCC1=C[C@@H]2CN(C1)Cc1c([nH]c3ccccc13)[C@@](C(=O)OC)(c1cc3c(cc1OC)N(C)[C@H]1[C@@](O)(C(=O)OC)[C@H](OC(C)=O)[C@]4(CC)C=CCN5CC[C@]31[C@@H]54)C2 [Vinorelbine (ditartrate)] |  | 18.3
CC(C)=CCC[C@](C)(O[C@@H]1O[C@H](CO)[C@@H](O)[C@H](O)[C@H]1O)[C@H]1CC[C@]2(C)[C@@H]1[C@H](O)C[C@@H]1[C@@]3(C)CC[C@H](O)C(C)(C)[C@@H]3[C@@H](O[C@@H]3O[C@H](CO)[C@@H](O)[C@H](O)[C@H]3O[C@@H]3OC[C@@H](O)[C@H](O)[C@H]3O)C[C@]12C [Notoginsenoside R1] |  | 0.5
